From the supplement of paper PMC12823440, “Inhibitors supercharge kinase turnover through native proteolytic circuits” (Nature, 2025)
Counter-ions that a name gives are not always drawn. The list shows a part of the results. The calls rarely recur for the same compound in another form.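 Kinases were expressed as nanoluciferase fusions in K562 cells and luminescence was read every 4 h between 2 and 18 h as percent of control, DMSO set to 100% and a positive control to 0%. A time point counts as decreased when the signal drops significantly (2 sigma). The hit call is the authors' own, does not follow from the count of time points alone, and its rule is not shown.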

Protein sequences, listed by entry. Tags and fused reporters are not part of them. Lines headed by an entry give the natural chain unless they say otherwise; changes in a name come on top.
UniProt Q16288, whole entry, looked up: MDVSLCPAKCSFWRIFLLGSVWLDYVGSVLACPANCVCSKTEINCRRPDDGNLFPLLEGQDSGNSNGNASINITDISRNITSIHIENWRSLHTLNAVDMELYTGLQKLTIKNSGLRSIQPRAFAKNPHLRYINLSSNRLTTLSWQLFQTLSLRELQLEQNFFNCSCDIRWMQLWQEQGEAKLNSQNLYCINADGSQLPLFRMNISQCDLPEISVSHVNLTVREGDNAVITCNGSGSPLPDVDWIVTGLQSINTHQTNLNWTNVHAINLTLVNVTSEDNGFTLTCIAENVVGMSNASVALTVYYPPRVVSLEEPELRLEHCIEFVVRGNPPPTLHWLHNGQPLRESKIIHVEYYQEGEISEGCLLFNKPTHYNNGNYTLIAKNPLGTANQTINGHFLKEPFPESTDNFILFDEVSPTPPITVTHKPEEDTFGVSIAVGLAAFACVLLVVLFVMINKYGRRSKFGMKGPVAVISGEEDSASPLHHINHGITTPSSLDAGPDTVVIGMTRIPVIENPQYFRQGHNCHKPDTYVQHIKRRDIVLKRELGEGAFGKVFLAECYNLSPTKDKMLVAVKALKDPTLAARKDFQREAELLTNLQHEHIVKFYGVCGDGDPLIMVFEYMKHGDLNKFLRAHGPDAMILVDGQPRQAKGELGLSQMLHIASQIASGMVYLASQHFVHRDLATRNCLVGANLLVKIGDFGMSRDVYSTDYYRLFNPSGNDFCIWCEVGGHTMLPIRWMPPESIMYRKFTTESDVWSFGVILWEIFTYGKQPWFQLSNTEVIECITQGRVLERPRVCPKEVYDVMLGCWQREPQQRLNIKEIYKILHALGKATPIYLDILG
UniProt O96013: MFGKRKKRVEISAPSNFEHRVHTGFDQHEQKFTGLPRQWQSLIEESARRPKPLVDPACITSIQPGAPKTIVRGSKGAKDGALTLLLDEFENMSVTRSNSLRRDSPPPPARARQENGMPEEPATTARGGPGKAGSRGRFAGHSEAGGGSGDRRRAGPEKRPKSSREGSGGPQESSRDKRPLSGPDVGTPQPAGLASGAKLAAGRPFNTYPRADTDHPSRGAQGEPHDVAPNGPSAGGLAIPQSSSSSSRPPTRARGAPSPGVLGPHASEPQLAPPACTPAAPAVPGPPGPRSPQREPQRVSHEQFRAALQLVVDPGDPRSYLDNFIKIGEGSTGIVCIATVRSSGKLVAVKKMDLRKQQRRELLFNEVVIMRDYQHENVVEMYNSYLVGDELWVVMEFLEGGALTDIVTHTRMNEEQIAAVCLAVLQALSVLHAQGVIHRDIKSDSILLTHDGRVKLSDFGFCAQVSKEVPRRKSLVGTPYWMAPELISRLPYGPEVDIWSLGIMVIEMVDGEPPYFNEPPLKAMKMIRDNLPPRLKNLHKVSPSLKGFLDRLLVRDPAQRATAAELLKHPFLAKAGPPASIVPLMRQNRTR
UniProt Q96KB5: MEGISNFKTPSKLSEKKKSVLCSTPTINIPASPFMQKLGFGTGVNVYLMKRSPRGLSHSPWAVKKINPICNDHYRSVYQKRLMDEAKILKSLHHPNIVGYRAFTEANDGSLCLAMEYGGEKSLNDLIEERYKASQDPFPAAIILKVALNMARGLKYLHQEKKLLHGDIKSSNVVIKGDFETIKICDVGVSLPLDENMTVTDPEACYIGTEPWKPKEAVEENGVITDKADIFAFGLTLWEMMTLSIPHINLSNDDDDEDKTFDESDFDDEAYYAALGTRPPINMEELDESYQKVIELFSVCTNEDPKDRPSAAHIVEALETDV
UniProt P09619, whole entry: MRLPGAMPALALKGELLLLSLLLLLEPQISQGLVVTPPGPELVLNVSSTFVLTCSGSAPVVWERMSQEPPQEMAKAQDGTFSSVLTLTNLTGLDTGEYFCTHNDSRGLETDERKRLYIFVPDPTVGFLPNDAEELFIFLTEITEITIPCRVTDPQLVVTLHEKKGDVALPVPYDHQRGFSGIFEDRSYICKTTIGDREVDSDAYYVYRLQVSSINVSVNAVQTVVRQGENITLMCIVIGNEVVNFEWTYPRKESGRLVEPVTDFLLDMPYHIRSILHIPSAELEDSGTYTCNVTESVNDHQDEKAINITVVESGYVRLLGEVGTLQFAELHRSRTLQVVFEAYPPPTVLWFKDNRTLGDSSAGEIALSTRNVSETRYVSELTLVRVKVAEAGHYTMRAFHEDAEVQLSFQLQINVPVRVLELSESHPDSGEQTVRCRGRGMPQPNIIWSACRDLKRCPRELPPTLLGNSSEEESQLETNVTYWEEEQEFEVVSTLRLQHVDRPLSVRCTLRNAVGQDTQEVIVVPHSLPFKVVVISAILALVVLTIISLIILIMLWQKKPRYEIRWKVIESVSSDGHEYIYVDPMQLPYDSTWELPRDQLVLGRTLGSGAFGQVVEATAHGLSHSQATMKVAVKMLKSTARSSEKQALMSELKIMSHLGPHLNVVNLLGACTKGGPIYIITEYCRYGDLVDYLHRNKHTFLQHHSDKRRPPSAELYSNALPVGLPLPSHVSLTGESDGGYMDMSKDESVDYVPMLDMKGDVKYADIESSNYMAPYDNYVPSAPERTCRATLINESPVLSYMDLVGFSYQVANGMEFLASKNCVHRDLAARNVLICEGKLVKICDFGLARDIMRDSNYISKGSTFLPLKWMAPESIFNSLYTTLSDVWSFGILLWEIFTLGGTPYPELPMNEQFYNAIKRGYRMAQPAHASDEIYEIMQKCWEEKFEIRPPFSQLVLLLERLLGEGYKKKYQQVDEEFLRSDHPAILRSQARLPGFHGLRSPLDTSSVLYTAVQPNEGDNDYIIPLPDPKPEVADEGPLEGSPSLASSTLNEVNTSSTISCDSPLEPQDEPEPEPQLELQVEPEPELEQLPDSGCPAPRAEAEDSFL
UniProt Q15118, whole entry, looked up: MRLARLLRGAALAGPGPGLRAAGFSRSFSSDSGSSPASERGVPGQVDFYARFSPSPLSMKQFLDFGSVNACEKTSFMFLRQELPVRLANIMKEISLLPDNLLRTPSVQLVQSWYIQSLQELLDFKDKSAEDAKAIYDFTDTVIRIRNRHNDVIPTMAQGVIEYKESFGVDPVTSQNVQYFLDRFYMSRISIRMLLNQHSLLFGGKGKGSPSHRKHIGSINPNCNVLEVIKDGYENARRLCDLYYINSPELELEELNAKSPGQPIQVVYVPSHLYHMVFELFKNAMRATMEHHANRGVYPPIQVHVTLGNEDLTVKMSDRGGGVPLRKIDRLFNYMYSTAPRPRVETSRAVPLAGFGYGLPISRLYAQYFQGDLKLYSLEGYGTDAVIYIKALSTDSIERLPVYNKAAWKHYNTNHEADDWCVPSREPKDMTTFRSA
UniProt O15530: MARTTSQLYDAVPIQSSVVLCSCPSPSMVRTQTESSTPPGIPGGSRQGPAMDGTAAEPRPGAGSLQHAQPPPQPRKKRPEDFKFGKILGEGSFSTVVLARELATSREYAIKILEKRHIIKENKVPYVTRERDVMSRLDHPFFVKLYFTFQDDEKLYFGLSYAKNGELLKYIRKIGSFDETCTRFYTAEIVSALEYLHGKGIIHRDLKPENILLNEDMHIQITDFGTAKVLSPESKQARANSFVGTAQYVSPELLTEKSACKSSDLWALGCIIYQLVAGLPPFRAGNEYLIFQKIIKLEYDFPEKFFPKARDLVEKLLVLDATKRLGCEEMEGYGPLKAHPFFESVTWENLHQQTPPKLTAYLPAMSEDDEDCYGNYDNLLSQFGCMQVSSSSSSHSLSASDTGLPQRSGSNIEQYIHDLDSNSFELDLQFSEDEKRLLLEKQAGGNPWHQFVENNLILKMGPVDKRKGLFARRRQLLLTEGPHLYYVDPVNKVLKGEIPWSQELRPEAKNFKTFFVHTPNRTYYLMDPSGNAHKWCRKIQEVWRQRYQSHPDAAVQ
UniProt Q9UBF8: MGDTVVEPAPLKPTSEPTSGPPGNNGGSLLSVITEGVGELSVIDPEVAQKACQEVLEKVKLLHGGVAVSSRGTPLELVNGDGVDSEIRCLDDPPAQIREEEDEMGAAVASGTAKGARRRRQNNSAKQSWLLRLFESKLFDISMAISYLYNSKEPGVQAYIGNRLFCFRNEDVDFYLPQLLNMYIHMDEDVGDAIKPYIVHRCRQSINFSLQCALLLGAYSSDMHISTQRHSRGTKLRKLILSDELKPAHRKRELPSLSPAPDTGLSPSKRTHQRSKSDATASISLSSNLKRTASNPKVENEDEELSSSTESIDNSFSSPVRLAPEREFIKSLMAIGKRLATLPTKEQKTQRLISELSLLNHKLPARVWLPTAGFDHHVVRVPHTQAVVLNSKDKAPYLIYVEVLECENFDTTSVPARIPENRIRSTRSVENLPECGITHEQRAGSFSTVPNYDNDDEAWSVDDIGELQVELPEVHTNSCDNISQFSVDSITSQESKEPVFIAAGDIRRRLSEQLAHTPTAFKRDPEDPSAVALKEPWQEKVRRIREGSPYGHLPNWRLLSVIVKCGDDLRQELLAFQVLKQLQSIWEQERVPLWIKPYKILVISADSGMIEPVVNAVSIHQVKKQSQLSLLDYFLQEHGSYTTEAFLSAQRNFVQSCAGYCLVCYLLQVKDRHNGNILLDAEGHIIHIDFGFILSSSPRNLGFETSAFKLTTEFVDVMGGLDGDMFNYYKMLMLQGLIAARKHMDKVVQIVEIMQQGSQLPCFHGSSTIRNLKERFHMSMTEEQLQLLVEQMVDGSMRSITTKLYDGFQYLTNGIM
UniProt P53350, whole entry: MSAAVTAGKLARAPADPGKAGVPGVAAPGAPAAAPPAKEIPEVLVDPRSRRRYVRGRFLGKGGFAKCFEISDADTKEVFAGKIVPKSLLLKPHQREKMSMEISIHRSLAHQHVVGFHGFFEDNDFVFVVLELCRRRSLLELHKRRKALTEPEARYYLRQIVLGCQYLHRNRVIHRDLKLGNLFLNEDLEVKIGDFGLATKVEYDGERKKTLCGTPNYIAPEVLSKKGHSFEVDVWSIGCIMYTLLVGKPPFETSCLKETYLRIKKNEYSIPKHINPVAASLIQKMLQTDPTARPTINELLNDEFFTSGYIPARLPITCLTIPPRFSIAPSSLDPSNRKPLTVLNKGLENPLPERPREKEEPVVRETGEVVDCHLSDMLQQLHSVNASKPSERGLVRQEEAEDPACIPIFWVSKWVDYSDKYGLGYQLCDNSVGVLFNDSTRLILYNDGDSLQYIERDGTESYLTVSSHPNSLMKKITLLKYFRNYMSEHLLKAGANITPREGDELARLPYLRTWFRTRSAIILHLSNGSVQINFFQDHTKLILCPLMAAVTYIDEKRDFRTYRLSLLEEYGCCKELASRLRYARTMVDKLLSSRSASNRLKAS
UniProt Q13131: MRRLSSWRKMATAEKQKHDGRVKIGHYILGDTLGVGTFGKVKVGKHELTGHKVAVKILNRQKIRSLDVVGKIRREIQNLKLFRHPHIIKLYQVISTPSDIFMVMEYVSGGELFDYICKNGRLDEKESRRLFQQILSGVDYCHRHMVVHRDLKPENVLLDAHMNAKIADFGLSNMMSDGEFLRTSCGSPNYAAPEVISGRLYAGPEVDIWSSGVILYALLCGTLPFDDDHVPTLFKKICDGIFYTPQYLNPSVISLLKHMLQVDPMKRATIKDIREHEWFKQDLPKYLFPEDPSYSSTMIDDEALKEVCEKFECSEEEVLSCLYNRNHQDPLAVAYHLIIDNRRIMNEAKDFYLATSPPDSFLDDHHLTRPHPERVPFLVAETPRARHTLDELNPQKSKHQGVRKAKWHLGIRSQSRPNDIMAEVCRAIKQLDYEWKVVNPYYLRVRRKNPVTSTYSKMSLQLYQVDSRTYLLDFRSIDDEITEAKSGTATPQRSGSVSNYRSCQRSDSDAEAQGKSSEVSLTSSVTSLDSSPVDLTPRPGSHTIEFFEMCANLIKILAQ

Experiments:
Experiment in all cases: number of time points (of 5) at which kinase-Nluc abundance scored as decreased, DMSO-normalised (count); higher = more persistent destabilization
Settings in all cases: K562; 2-18 h
[1] = target: NTRK3 (UniProt Q16288)
[2] = target: PAK4 (UniProt O96013)
[3] = target: PBK (UniProt Q96KB5)
[4] = target: PDGFRB (UniProt P09619)
[5] = target: PDK1 (UniProt Q15118)
[6] = target: PDPK1 (UniProt O15530)
[7] = target: PIK4CA (UniProt P42356)
[8] = target: PIK4CB (UniProt Q9UBF8)
[9] = target: PLK1 (UniProt P53350)
[10] = target: PRKAA1 (UniProt Q13131)

Measured: number of time points

Cn1c(=O)c(Oc2ccc(F)cc2F)cc2cnc(NC3CCOCC3)nc21 [R1487 (Hydrochloride)] (10 µM)
0: all assays above

O=C1Nc2ccccc2/C1=C/c1ccc(F)cc1 (10 µM)
0: all assays above

O=c1c(-c2ccc(O)cc2)coc2cc(O)cc(O)c12 [Genistein] (10 µM)
0: all assays above

COc1cc2ncn(-c3cc(OCc4ccccc4C(F)(F)F)c(C(N)=O)s3)c2cc1OC (10 µM)
2: [4]
0: all other assays above

CC(C)(C)n1nc(Cc2cccc3ccccc23)c2c(N)ncnc21 (10 µM)
0: all assays above

CC(C)=CC/C=C(\C)[C@H]1CC[C@]2(C)[C@@H]1[C@H](O)C[C@@H]1[C@@]3(C)CC[C@H](O[C@@H]4O[C@H](CO)[C@@H](O)[C@H](O)[C@H]4O[C@@H]4O[C@H](CO)[C@@H](O)[C@H](O)[C@H]4O)C(C)(C)[C@@H]3CC[C@]12C [Ginsenoside Rg5] (10 µM)
0: all assays above

NC(=O)c1ccc(-c2nc(-c3ccccn3)c(-c3ccc4c(c3)OCO4)[nH]2)cc1 (10 µM)
0: all assays above

CN1CCN(S(=O)(=O)c2ccc(-c3cnc(N)c(C(=O)Nc4cccnc4)n3)cc2)CC1 (10 µM)
0: all assays above

Cn1nc(C(C)(C)C)cc1NC(=O)Nc1ccc(Oc2ccncc2)cc1 (10 µM)
4: [1]
3: [4]
1: [8]
0: all other assays above

CN(C)C[C@@H]1CCn2cc(c3ccccc32)C2=C(C(=O)NC2=O)c2cn(c3ccccc23)CCO1 [Ruboxistaurin (hydrochloride)] (10 µM)
0: all assays above

C=CC(=O)N1CCC[C@@H](n2nc(-c3ccc(Oc4ccccc4)cc3)c(C(N)=O)c2N)C1 [Btk inhibitor 2] (10 µM)
0: all assays above

Cc1c[nH]c2nccc(Oc3c(F)cc(Nc4cc(Cl)nc(N)n4)cc3F)c12 (10 µM)
1: [2]
0: all other assays above

COc1cc2ncnc(Nc3cccc(O)c3)c2cc1OC (10 µM)
0: [2] | [3] | [5]
2: [7]
3: [10]
4: [6]
1: all other assays above

Cc1c[nH]c2ccccc12 [Skatole] (10 µM)
0: all assays above

O=S(=O)(NCCNC/C=C/c1ccc(Br)cc1)c1cccc2cnccc12 [H-89 (dihydrochloride)] (10 µM)
0: all assays above

O=C(O)CCNC(=O)c1ccc(/N=N/c2ccc(O)c(C(=O)O)c2)cc1 [Balsalazide] (10 µM)
0: all assays above

CCCS(=O)(=O)Nc1ccc(F)c(C(=O)c2c[nH]c3ncc(Cl)cc23)c1F (10 µM)
1: [6]
0: all other assays above

Cc1ccc(NC(=O)Nc2nnc(Sc3ncnc4cc(OCCCN5CCOCC5)ccc34)s2)cc1 (10 µM)
2: [7]
0: all other assays above

Cc1ncc(-c2ccnc(Nc3ccc(S(C)(=O)=O)cc3)n2)n1C(C)C (2.5 µM)
2: [6]
0: all other assays above

O=C(Nc1cc(C(F)(F)F)ccc1N1CCN(Cc2ccccn2)CC1)c1ccc(-c2ccncc2)o1 (10 µM)
0: all assays above

O=C1NCCc2[nH]c(-c3ccnc(-c4cnc5ccccc5c4)c3)cc21 (10 µM)
0: all assays above

CC(C)c1ccc2oc3nc(N)c(C(=O)O)cc3c(=O)c2c1 [Amlexanox] (10 µM)
0: all assays above

COCCOc1cc2nccc(Nc3n[nH]c(C)c3C)c2cc1S(=O)(=O)C(C)(C)C [RIP2 kinase inhibitor 2] (2.5 µM)
0: all assays above

COC(=O)c1ccc2c(C(=Nc3ccc(N(C)C(=O)CN4CCN(C)CC4)cc3)c3ccccc3)c(O)[nH]c2c1 [Nintedanib] (2.5 µM)
0: all assays above

CCCCNc1ncc(-c2ccc(CN3CCOCC3)cn2)c(NC2CCC(O)CC2)n1 (stereo not given) (10 µM)
0: all assays above

CC(C)CC(=O)Nc1n[nH]c2c1CN(C(=O)C1CCN(C)CC1)C2(C)C (2.5 µM)
1: [1] | [7]
3: [4] | [6]
0: all other assays above

CCn1cc(-c2ccnc3[nH]c(-c4cccc(CN(C)C)c4)cc23)c(-c2ccc(NC(=O)N(C)C)cc2)n1 (2.5 µM)
0: all assays above

O=c1oc2c(C3OCCCO3)c(O)ccc2c2c1CNCC2 (10 µM)
0: all assays above

CCCn1cnc2c(NCc3ccccc3)nc(NC(CC)CO)nc21 (stereo not given) [Ca2+ channel agonist 1] (2.5 µM)
0: all assays above

Cc1cc(F)c(C(=O)Nc2cccc(-c3nncn3C(C)C)n2)cc1-n1cnc(C2CC2)c1 [Selonsertib] (10 µM)
0: all assays above

COc1cc(Oc2ccnc3cc(OC)c(OC)cc23)ccc1NC(=O)NC(C)c1nccs1 (stereo not given) (2.5 µM)
0: all assays above

COc1cc(OC)c(F)c(COc2cnc(Nc3cnn(CCO)c3)nc2)c1F (2.5 µM)
1: [4] | [5] | [8]
0: all other assays above

CC#CC(=O)N[C@H]1CCCN(c2c(F)cc(C(N)=O)c3[nH]c(C)c(C)c23)C1 [Branebrutinib] (10 µM)
0: all assays above

Cc1cc(CS(=O)(=O)c2ccccc2)cc(OCc2ccc(CN3CCC[C@@H]3CO)cc2)c1 [PF-543 (Citrate)] (10 µM)
0: all assays above

Structural class: the compounds so far containing a CF3 group.
COc1cc2ncn(-c3cc(OCc4ccccc4C(F)(F)F)c(C(N)=O)s3)c2cc1OC (10 µM)
2: [4]
0: all other assays above

O=C(Nc1cc(C(F)(F)F)ccc1N1CCN(Cc2ccccn2)CC1)c1ccc(-c2ccncc2)o1 (10 µM)
0: all assays above

(more compounds)

CCOc1cc2ncc(-c3cc(N)nc(F)c3)n2cc1S(=O)(=O)C(C)(C)C (10 µM)
0: all assays above

CC(C)(C#N)c1ccc(N2C(=O)OCc3cnc4ccc(-c5cnc6ccccc6c5)cc4c32)cc1 (2.5 µM)
0: all assays above

CCOc1cc2ncc(C#N)c(Nc3ccc(OCc4ccccn4)c(Cl)c3)c2cc1NC(=O)/C=C/CN(C)C [Neratinib] (10 µM)
0: all assays above
